Data from paper PMC3212929.
Results are given in words; binding and its absence hold for the method and conditions named. In cells and extracts the contact can be indirect. Some entries that bind do so weakly or less than the wild type.

The chains behind the UniProt entries cited, without tags or fusion partners.
UniProt P41229: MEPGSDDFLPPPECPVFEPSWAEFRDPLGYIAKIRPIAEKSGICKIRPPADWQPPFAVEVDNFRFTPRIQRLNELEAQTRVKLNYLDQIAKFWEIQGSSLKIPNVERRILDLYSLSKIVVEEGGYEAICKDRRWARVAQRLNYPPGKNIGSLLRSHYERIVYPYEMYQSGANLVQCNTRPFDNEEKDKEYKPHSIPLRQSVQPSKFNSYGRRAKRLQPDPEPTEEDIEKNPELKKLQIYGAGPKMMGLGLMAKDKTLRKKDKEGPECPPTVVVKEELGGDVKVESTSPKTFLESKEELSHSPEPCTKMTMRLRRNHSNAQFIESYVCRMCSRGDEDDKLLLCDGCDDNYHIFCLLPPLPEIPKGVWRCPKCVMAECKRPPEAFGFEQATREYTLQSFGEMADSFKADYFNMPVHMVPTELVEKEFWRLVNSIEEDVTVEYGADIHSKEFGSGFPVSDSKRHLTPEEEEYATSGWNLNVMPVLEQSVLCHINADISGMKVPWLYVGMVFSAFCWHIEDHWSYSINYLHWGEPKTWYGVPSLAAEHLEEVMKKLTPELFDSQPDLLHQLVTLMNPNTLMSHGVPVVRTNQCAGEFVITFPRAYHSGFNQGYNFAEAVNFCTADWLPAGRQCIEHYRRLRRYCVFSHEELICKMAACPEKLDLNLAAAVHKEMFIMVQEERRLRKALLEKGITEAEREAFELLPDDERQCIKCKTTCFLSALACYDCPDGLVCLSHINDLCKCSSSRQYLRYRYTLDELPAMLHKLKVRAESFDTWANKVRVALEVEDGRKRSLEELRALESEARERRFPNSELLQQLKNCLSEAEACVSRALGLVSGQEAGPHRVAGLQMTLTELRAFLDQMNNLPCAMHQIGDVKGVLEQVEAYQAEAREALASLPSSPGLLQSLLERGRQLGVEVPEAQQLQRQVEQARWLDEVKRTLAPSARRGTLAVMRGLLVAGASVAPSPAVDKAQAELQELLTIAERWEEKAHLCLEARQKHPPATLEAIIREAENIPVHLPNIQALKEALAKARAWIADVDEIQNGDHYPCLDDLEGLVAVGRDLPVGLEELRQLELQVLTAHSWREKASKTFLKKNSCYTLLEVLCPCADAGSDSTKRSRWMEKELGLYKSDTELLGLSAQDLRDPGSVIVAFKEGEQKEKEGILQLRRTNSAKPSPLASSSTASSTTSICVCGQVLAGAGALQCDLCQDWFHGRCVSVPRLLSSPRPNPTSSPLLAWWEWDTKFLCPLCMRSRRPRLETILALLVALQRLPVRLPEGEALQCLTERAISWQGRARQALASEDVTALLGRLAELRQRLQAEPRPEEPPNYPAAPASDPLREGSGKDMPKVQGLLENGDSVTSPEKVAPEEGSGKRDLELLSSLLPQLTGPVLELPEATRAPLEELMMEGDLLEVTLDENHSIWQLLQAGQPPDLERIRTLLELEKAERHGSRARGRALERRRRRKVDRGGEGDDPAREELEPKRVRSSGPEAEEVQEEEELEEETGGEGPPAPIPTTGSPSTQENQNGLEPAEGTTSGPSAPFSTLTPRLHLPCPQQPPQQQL
UniProt P12004: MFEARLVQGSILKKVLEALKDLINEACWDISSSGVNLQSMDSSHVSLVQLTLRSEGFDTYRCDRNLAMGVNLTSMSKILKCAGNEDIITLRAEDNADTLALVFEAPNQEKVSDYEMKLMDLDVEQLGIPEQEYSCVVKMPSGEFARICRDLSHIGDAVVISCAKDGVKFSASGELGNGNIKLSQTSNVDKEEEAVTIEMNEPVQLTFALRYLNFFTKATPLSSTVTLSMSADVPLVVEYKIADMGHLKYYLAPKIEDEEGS

Biological target: SMCX (Smcy homolog, X-linked (mouse)) histone demethylase, normal SMCX (UniProt P41229)
Assay: co-IP; chromatin lysates of 293T cells transfected with the SMCX plasmid; immunoprecipitated with anti-SMCX or anti-PCNA (control normal IgG) at 4°C overnight, protein G plus/protein A agarose; some lysates pretreated with DNAse; western blot

binding: binds
Substance: proliferating cell nuclear antigen (PCNA) (from UniProt P12004 1-261)
